# PubChem BioAssay AID686943, Drosophila RNAi Screening Center | 2013
# Test: 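Fly genes whose loss alters ERK activation after insulin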 (primary screen)
# System: Drosophila S2R+ haemocyte-like cells expressing YFP-tagged ERK (Rolled)
# Reagent: long dsRNA against Drosophila genes
# Conditions: insulin stimulation versus unstimulated cells; dose and duration not given
# Measured: 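Per-plate z-scores of phospho-ERK immunostaining normalised to YFP-tagged ERK, measured with and without insulin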
# Direction: replicate 1, z-score of dpERK with insulin and replicate 2, z-score of dpERK with insulin: higher = more active ERK per ERK-YFP after insulin
# The screen tested about 23,000 reagents; this is an unselected part of those that have a named target and a result. 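Extra replicates exist only for a retested subset of genes; insulin dose and duration not given; both raised and lowered dpERK matter.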 Names joined by + are all predicted targets of the reagent. Not all columns of the deposit are shown. No sequences are given here. Not stated in the record: the amount of reagent, the time to read-out.
gene knocked down,DRSC id,"replicate 1, z-score of dpERK with insulin","replicate 2, z-score of dpERK with insulin"
botv,DRSC05949,0.24,0.01
GluRIID,DRSC16723,0.14,0.43
CG4752,DRSC04486,3.41,1.83
CG4363,DRSC04465,0.93,-0.63
CG15312,DRSC18000,0.21,0.69
bbc,DRSC06958,0.46,-0.1
bbc,DRSC22309,-0.26,-0.17
RpL10,DRSC11947,-3.41,-1.74
beat-IIIc,DRSC02438,-0.11,0.37
beat-IIIc,DRSC02949,0.1,0.09
CG31220,DRSC22248,0.31,0.28
CG2898,DRSC18238,0.75,0.46
gbb,DRSC04687,0.14,0.86
SAK,DRSC11879,-0.12,0.12
CG3502 + CG9863,DRSC04578,0.13,1.15
CG14818,DRSC18548,2.95,0.36
CG3071,DRSC18526,-0.51,-0.06
Ttc30,DRSC02818,0.11,-0.31
idc,DRSC15680,1.53,1.89
CG6125,DRSC15970,-0.85,-0.6
CG14618,DRSC20631,-0.61,-0.36
whd,DRSC07351,0.27,-0.05
DZIP1,DRSC14620,-0.07,-0.15
CG8675,DRSC20117,-0.12,0.1

6 entries from above, limited to “replicate 2, z-score of dpERK with insulin”.
idc [DRSC15680]: 1.89
CG6125 [DRSC15970]: -0.6
CG14618 [DRSC20631]: -0.36
whd [DRSC07351]: -0.05
DZIP1 [DRSC14620]: -0.15
CG8675 [DRSC20117]: 0.1

The list goes on.
gene knocked down,DRSC id,"replicate 1, z-score of dpERK with insulin","replicate 2, z-score of dpERK with insulin"
Pits,DRSC19385,-0.39,-0.01
Pits,DRSC19812,0.31,0.48
BicD,DRSC02006,0.22,0.46
Cap-D3 + tomb,DRSC02347,-0.11,0.23
sls,DRSC08528,0.94,0.05
sls,DRSC08540,-1.61,-0.69
sls,DRSC08670,-0.18,-0.35
CR43361,DRSC17206,-0.3,0.26
Ssl2,DRSC14395,0.62,0.11
Ssl2,DRSC22796,0.57,0.34
Dhc1,DRSC12748,0.92,0.81
Dhc1,DRSC16503,0.21,0.62
CG12016 + Dpm2,DRSC08224,-1.31,1.05
CG15115,DRSC06537,-0.55,-0.25
CG16786,DRSC04281,-0.17,0.7
CG2909,DRSC18241,-0.8,0.09
Jon65Ai,DRSC09731,0.21,0.69
bard,DRSC14796,0.3,-0.05
Vha68-2,DRSC02721,0.15,-0.07
CSN4,DRSC07350,0.26,1.06
CG16972,DRSC02550,0.14,0.27
lab,DRSC12627,-0.5,-0.63
l(2)k10201,DRSC06439,0.59,0.28
l(2)k10201,DRSC07640,1,0.52
CG14459,DRSC11719,-6.15,-2.47
CG12880,DRSC14568,-0.78,-0.34
Mec2,DRSC20054,-0.16,-0.3
RNF220,DRSC15652,-0.14,0.46
meigo,DRSC15877,1.09,0
Rab7,DRSC16810,-0.32,-1.11
CG11069,DRSC14289,-0.01,-0.24
CG6398,DRSC19992,0.24,0.13
ppk26,DRSC10991,-0.5,0.38
